PubChem BioAssay AID602346 (Broad Institute, 2012)
The whole screen tested about 340,000 compounds, of which about 1,200 (0.35%) were called active. This list was built around the results that the source calls inconclusive (neither active nor inactive); the mix of calls is not that of the screen. No stated cut-off is given here; in the data, active means inhibition above about 50% (passing the limit was not always enough); inconclusive means no clear call, values can overlap the other calls; inactive means below about 31%.

Test: blockers of Vif multimerization in cells – imaging, HEK293T, single point, primary screen (AID 602346)
Conditions: Vif self-association by quenched fluorescence, 24 h, at 7.49 µM, stronger effect = higher value

Row | Compound | inhibition
1 | CNC(=O)c1ccccc1Sc1ccccc1C#N | inconclusive: 37.2%
2 | COc1cc(NC(=O)CSc2nnnn2Cc2ccccc2)cc(OC)c1 | inactive: -6.3%
3 | CC(NS(=O)(=O)c1ccccc1)C(=O)Nc1ccc(S(N)(=O)=O)cc1 (centres undefined) | inconclusive: 19.3%
4 | O=C(CCl)NN1C(=O)NC(c2ccccc2)(c2ccccc2)C1=O | inconclusive: 38.3%
5 | C=CC(=O)N1C/C(=C/c2ccc(F)cc2)C(=O)/C(=C\c2ccc(F)cc2)C1 | active: 143%
6 | Cc1cccc(C(=O)NNC(=O)C23CC4CC(CC(C4)C2)C3)c1O | inactive: 1.76%
7 | O=C1C=CC(=O)c2c(O)c(N3CCN(CCOCCO)CC3)c(Br)c(O)c21 | active: 72.1%
8 | O=[N+]([O-])c1ccc(NN=Cc2cccc(O)c2)nc1 | inactive: -7.18%
9 | Cc1ccc(S(=O)(=O)ON=C2CCN(S(=O)(=O)c3ccccc3)CC2)cc1 | inconclusive: 29%
10 | CCOC(=O)c1cnc(-n2cc(C)cn2)nc1NCc1ccc2c(c1)OCO2 | inactive: -13.8%
11 | Cc1c(C(=O)C(=O)NCCCn2ccnc2)c2ccccc2n1C | inactive: -7.67%
12 | CCOc1ccc(C2C(C(=O)c3cccs3)=C(O)C(=O)N2Cc2cccnc2)cc1 (centres undefined) | inconclusive: 30.9%
13 | CC1=C(C(=O)Nc2ccccc2)C(c2ccco2)C(C#N)=C(SCC(=O)Nc2cccc(C)c2C)N1 (centres undefined) | inconclusive: 7.56%
14 | CCN1C(=O)c2cccc3c(S(=O)(=O)Nc4ccccc4)ccc1c23 | inconclusive: 39.4%
15 | Cc1cc(=O)n2c3ccccc3n(CC(O)CN3CCOCC3)c2c1C#N (centres undefined) | inactive: -0.383%
16 | Cc1cc(NC(=O)CCN2C(=O)/C(=C\c3ccccc3)SC2=S)no1 | inconclusive: 27.9%
17 | O=C(Nc1ccc2c(c1)OCCO2)c1ccc(Br)c(S(=O)(=O)N2CCOCC2)c1 | inactive: 3.63%
18 | O=C(NC1CCCc2ccccc21)c1ccccc1Br (centres undefined) | active: 59.9%
19 | O=C(COC(=O)COc1ccccc1)Nc1ccc(Br)cc1F | inconclusive: 34.3%
20 | CCOC(=O)N1CCC(n2c(=S)[nH]c3cc(OCC)c(OCC)cc3c2=O)CC1 | inconclusive: 39.9%

Compounds listed so far that have an aryl thioether with sulfur outside any ring:
Row | Compound | inhibition
1 | CNC(=O)c1ccccc1Sc1ccccc1C#N | inconclusive: 37.2%
2 | COc1cc(NC(=O)CSc2nnnn2Cc2ccccc2)cc(OC)c1 | inactive: -6.3%

Additional compounds:

Row | Compound | inhibition
21 | Cc1c(C(=O)OC2CCCCC2)sc2nc[nH]c(=O)c12 | inconclusive: 39.1%
22 | Cc1ccc(C(=O)OCn2ncc(Cl)c(Cl)c2=O)cc1 | active: 50.4%
23 | Cc1ccc(S(=O)(=O)Nc2c(C)nc3nc(C)[nH]n3c2=O)c(C)c1 | active: 63.8%
24 | CCOC(=O)COc1ccc(/C=C2/SC(=Nc3ccccc3)N(Cc3cccnc3)C2=O)cc1OC | inconclusive: 30.8%
25 | COc1ccc(OCC(O)COc2ccc(C(=O)O)cc2)cc1 (centres undefined) | inconclusive: 36.6%
26 | O=C1CC(c2ccc(F)cc2)Cc2nc(N3CCOCC3)ncc21 (centres undefined) | inconclusive: 28.1%
27 | COc1ccc(S(=O)(=O)Nc2ccc3c(c2)OCO3)cc1Cl | inconclusive: 22.4%
28 | CCNC(=S)NNC(=O)Nc1ccccc1 | inconclusive: 32.7%
29 | O=C(CNC(=O)c1ccccc1)NC1(C(=O)NC2CCCC2)CCCCC1 | inconclusive: 47.3%
30 | Cc1ccc(C)c(CSc2nnc(-c3cccs3)n2Cc2ccco2)c1 | inactive: -8.67%
31 | CCOP(=O)(OCC)C(Nc1cccc(C(F)(F)F)c1)c1ccc(C)cc1 (centres undefined) | inconclusive: 14.1%
32 | Cc1cc(C)n(-c2nc(-c3ccccc3)cs2)n1 | inactive: 7.97%
33 | O=S(=O)(Cc1ccccc1)N1CCC(N2CCN(c3ccccc3)CC2)CC1 | inconclusive: 33%
34 | NC(N)=N/N=C/c1cc([N+](=O)[O-])ccc1O | inactive: -1.61%
35 | O=C(Cn1ncc(Cl)c(Cl)c1=O)NC1CCS(=O)(=O)C1 (centres undefined) | inconclusive: 31.5%
36 | Cc1nnc(-c2ccccc2)nc1N1CCOCC1 | inactive: -2.93%
37 | CCOc1ccc(-n2c(SCC(=O)Nc3ccc(Br)cc3)nc3n[nH]c(C)c3c2=N)cc1 | inconclusive: 34.8%
38 | Cc1cc2cc(CNC(=S)NC3CCCCC3)ccc2[nH]1 | inactive: 1.41%
39 | COc1ccc(S(=O)(=O)NCc2cccnc2)c(Cl)c1Cl | inconclusive: 46.1%
40 | COc1ccc(Cl)cc1-n1c(C)cc(C(=O)O)c1C | inconclusive: 37.8%

Row | Compound | inhibition
41 | CCN(CC)CCNC(=O)C(=O)Nc1ccc(C(=O)OC)cc1 | inactive: -1.43%
42 | CN1c2ccccc2C(C)(C)[C@]12C=Cc1cc(O)ccc1O2 | active: 74.4%
43 | CCOc1cc(N2CCOCC2)c(OCC)cc1NC(=O)C(C)(C)C | inactive: -3.26%
44 | Cc1ccc(CNC(=O)c2cccc3c2C(=O)c2ccc(N4CCC(C)CC4)cc2S3(=O)=O)cc1 | active: 111%
45 | CC1(C)Oc2ccc(C(=O)N/N=C/c3ccc(O)cc3)cc2NC1=O | active: 109%
46 | COc1ccc(C23NCCN2C(=O)c2ccccc23)cc1 (centres undefined) | inconclusive: 44.6%
47 | CC1CC(C)CN(CCC(=O)Nc2ccc(Br)cc2)C1 (centres undefined) | inconclusive: 29.2%
48 | CC1CCc2nc(NC(=O)c3ccc(S(=O)(=O)N4CCCc5ccccc54)cc3)sc2C1 (centres undefined) | inactive: -63.7%
49 | COc1ccc2c(CCNC(=O)Nc3ccccc3)c[nH]c2c1 | inconclusive: 16.9%
50 | N#C/C(=C\C=C\c1ccccc1)C(=O)N1CCCC1 | inactive: 7.38%
51 | CCC1(C)Cc2c(C#N)c(N)sc(=S)c2CO1 (centres undefined) | inconclusive: 33.4%
52 | COc1ccc(OC)c(-c2cnc(OC(C)(C)C)nc2OC(C)(C)C)c1 | inactive: 16.8%
53 | O=C(N/N=C\c1ccc([N+](=O)[O-])o1)c1cncc(Br)c1 | inconclusive: 26.9%
54 | Cc1cc(C(=O)CN2c3cccc4cccc(c34)S2(=O)=O)c(C)n1C | inconclusive: 28.4%
55 | Cc1cc(C)nc(Nc2ccc(C(=O)O)cc2)n1 | active: 58.5%
56 | O=C(NN=C1CCCCCC1)C(=O)Nc1cccc(Br)c1 | inconclusive: 28.5%
57 | CN(C)C(=O)CSc1nc2cc(S(=O)(=O)N3CCOCC3)ccc2o1 | inconclusive: 32.8%
58 | COc1ccc(-c2nc3ccc([N+](=O)[O-])cc3[nH]2)cc1 | inconclusive: 48.8%
59 | CCOc1cc(C(=S)N2CCOCC2)ccc1OC | active: 66.3%
